No constants are given. Whether binding was seen depends on the method and setting. Binding seen in cells or lysates may run through a third protein. Some entries that bind do so weakly or less than the wild type.

Amino acid sequences for entries named in this document (tags omitted).
UniProt Q01831: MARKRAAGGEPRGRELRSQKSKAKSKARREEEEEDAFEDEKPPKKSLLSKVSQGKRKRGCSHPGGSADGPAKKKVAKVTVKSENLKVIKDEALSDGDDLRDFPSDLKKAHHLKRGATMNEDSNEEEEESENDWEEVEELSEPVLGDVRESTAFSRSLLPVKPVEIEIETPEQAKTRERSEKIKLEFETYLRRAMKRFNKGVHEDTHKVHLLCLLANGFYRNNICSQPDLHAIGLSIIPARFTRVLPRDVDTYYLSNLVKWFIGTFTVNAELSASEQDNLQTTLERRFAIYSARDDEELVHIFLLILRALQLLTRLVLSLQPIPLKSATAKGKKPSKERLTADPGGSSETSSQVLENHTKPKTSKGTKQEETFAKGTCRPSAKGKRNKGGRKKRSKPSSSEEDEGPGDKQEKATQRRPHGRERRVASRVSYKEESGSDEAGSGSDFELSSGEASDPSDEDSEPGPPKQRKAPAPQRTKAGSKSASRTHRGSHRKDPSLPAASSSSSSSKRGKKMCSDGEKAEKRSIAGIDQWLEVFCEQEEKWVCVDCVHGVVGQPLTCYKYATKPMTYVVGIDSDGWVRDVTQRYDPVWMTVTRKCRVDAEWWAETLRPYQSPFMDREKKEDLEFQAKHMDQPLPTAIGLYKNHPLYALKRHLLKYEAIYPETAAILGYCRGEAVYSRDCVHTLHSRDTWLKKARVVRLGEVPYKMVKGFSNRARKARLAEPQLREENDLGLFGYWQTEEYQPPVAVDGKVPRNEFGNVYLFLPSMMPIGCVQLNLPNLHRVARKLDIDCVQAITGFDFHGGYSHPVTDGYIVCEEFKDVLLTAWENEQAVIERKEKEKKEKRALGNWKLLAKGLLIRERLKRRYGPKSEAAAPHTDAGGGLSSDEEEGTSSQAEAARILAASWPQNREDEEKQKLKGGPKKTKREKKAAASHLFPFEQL
UniProt P54725: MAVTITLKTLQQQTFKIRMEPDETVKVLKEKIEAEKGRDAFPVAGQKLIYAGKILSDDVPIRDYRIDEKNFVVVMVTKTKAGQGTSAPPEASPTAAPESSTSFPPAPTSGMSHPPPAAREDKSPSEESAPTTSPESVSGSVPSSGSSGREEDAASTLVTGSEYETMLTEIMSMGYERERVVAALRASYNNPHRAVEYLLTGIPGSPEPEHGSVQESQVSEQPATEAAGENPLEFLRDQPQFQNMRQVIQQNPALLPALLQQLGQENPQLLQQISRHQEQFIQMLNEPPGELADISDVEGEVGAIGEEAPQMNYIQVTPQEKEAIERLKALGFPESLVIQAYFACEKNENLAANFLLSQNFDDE

This assay concerns the target FLAG-tagged XPC (human) (UniProt Q01831). The experiment in a line: co-IP; whole-cell extracts of transfected HEK293T cells, FLAG-M2 beads, elution with FLAG peptide under native conditions, immunoblot for FLAG, HA, myc tags or hHR23B. In general terms: In western blotting, separated proteins are transferred to a membrane and probed.

Turning to “HA-tagged hHR23AFL (from UniProt P54725 1-363)”, the binding result is on record as “binds”.

Values taken from article PMC8617076.
